Here are results for 76 variants from the supplement of paper PMC7125110.

± gives the standard error. The uncertainty is large for many entries.

B1: glmS ribozyme (parent)
chain: AUAAAAGCGCCAGAACUACAGAAAUGUAGUUGACGAGGAGGAGGUUUAUCGAAUUUUCGGCGGAUGCCUCCAAA

The variants in the first data set derive from B1. Kind of data set: self-cleavage kobs at 10000 uM GlcN6P; higher = faster cleavage; RNA array. The conditions noted are these: with glucosamine-6-phosphate. The procedure, abridged: (§1)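 Weighted Michaelis–Menten fits across concentrations supplied kcat and KM, based on kobs from one- or two-exponential decay fits to normalised per-tile medians. The data came from barcoded ribozyme variants transcribed in situ by E. coli RNA polymerase on sequenced MiSeq chips and tracked at 37 °C by a hybridised Cy3 probe. Glucosamine-6-phosphate (40 μM to 10 mM) in HEPES/KCl/Mg(OAc)2 buffer was flowed in.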
A15G C61U: the “self-cleavage kobs at 10000 uM GlcN6P” value is 1.81e-05 ± 9.1e-06 s⁻¹. On the same count and under the same terms, next, C11G C34A U65G C70G: 2.56e-05 ± 2.4e-05 s⁻¹; A14U G32C A53G C67U C71G: 2.86e-05 ± 1.5e-05 s⁻¹; G32C U56C: 1.28e-05 ± 8.7e-06 s⁻¹. With A14C G40C U55A, the “self-cleavage kobs at 10000 uM GlcN6P” value was 4.82e-05 ± 2.5e-05 s⁻¹. Same read-out and setting: next, A6U U65G: 2.41e-05 ± 1.4e-05 s⁻¹. In the case of C10A C50U C67G, the “self-cleavage kobs at 10000 uM GlcN6P” value stood at 2.67e-05 ± 2.3e-05 s⁻¹. U57C C70G: the “self-cleavage kobs at 10000 uM GlcN6P” value worked out at 1.58e-05 ± 1.5e-05 s⁻¹. In the case of C58A C70G C71A, the “self-cleavage kobs at 10000 uM GlcN6P” value was determined as 1.98e-05 ± 1.7e-05 s⁻¹. Same read-out and setting: next, A48C A53G C71G: 1.56e-05 ± 1.3e-05 s⁻¹; A36C C58A U65A C68G: 3.52e-05 ± 2e-05 s⁻¹.

With U56A G59U, the “self-cleavage kobs at 10000 uM GlcN6P” value came out at 2.08e-05 ± 1.4e-05 s⁻¹.

Regarding A36U C68U, the “self-cleavage kobs at 10000 uM GlcN6P” value is 0.000902 ± 0.0005 s⁻¹. Take C11A U49G C67G: the “self-cleavage kobs at 10000 uM GlcN6P” value came out at 2.16e-05 ± 1.4e-05 s⁻¹. Regarding G37A A48G, the “self-cleavage kobs at 10000 uM GlcN6P” value came out at 2.06e-05 ± 1.5e-05 s⁻¹. Consider A14G C19A A20G G21A G60A, for which the “self-cleavage kobs at 10000 uM GlcN6P” value turned out to be 3.57e-05 ± 2.2e-05 s⁻¹. Turning to G59A U65G C67G, the “self-cleavage kobs at 10000 uM GlcN6P” value is 1.83e-05 ± 1.7e-05 s⁻¹. On the same count and under the same terms, next, C10A C67U C68U: 1.9e-05 ± 1.9e-05 s⁻¹; U45G C58U: 2.07e-05 ± 1.9e-05 s⁻¹; A12U A36G: 1.18e-05 ± 1e-05 s⁻¹. Turning to G59A A64G G66A, the “self-cleavage kobs at 10000 uM GlcN6P” value worked out at 2.5e-05 ± 2.2e-05 s⁻¹. In the case of A12C C68A, the “self-cleavage kobs at 10000 uM GlcN6P” value came to 1.76e-05 ± 9.6e-06 s⁻¹. On the same count and under the same terms, next, U30C C58A: 1.34e-05 ± 1.2e-05 s⁻¹; U49A U54G: 2.88e-05 ± 2.3e-05 s⁻¹; U45A C61U: 2.03e-05 ± 1.9e-05 s⁻¹. With C10A U57A C68A, the “self-cleavage kobs at 10000 uM GlcN6P” value came to 1.98e-05 ± 1.7e-05 s⁻¹.

On to A15U G44C, for which the “self-cleavage kobs at 10000 uM GlcN6P” value came to 2.04e-05 ± 1.2e-05 s⁻¹. Turning to U54C C61U C68G U69G, the “self-cleavage kobs at 10000 uM GlcN6P” value was found to be 3.94e-05 ± 2.8e-05 s⁻¹. On the same count and under the same terms, next, G29U C50G A53G U55G C67G: 4.98e-05 ± 2.8e-05 s⁻¹; G29A A42U: 2.28e-05 ± 1.7e-05 s⁻¹; G9U G29U C50G C58A G63C: 2.43e-05 ± 2.4e-05 s⁻¹. For the variant A36U C50G, the “self-cleavage kobs at 10000 uM GlcN6P” value worked out at 0.000943 ± 0.00077 s⁻¹. Consider U31G G32C U65G C71U, for which the “self-cleavage kobs at 10000 uM GlcN6P” value worked out at 1.49e-05 ± 1.3e-05 s⁻¹. For U45C C58A, the “self-cleavage kobs at 10000 uM GlcN6P” value worked out at 1.73e-05 ± 1.7e-05 s⁻¹. Turning to U45A C61G C71G, the “self-cleavage kobs at 10000 uM GlcN6P” value was found to be 2.15e-05 ± 2e-05 s⁻¹. On to A48G C71A, for which the “self-cleavage kobs at 10000 uM GlcN6P” value worked out at 1.83e-05 ± 1e-05 s⁻¹.

As for C34G C70G, the “self-cleavage kobs at 10000 uM GlcN6P” value amounted to 1.97e-05 ± 1.5e-05 s⁻¹.

With U56C C71G, the “self-cleavage kobs at 10000 uM GlcN6P” value amounted to 2.26e-05 ± 1.4e-05 s⁻¹. For the variant C8G U57A C70A, the “self-cleavage kobs at 10000 uM GlcN6P” value came to 4.33e-05 ± 2.8e-05 s⁻¹. As for C10A U69C, the “self-cleavage kobs at 10000 uM GlcN6P” value is 1.68e-05 ± 1.5e-05 s⁻¹.

For the variant A14U G37C, the “self-cleavage kobs at 10000 uM GlcN6P” value came to 2.38e-05 ± 1.5e-05 s⁻¹. On to C8U G37U A48U C70G, for which the “self-cleavage kobs at 10000 uM GlcN6P” value came out at 2.45e-05 ± 2.3e-05 s⁻¹. Take C61U A64G: the “self-cleavage kobs at 10000 uM GlcN6P” value worked out at 2.05e-05 ± 1.3e-05 s⁻¹. Consider C10G C11U C67G, for which the “self-cleavage kobs at 10000 uM GlcN6P” value worked out at 2.2e-05 ± 1.8e-05 s⁻¹. Same read-out and setting: next, C11G C61G C68G: 2.75e-05 ± 1.9e-05 s⁻¹; A48U A53C: 2.05e-05 ± 1.2e-05 s⁻¹. As to C50A U69G, the “self-cleavage kobs at 10000 uM GlcN6P” value is 1.89e-05 ± 1.1e-05 s⁻¹. As to C11G U30C C58U C70A, the “self-cleavage kobs at 10000 uM GlcN6P” value came out at 2.13e-05 ± 1.7e-05 s⁻¹.

As to A14U A52G C71G, the “self-cleavage kobs at 10000 uM GlcN6P” value stood at 2.01e-05 ± 1.4e-05 s⁻¹. On to G13C G29U C71G, for which the “self-cleavage kobs at 10000 uM GlcN6P” value worked out at 2.76e-05 ± 2.2e-05 s⁻¹. For A14G G43U U46G, the “self-cleavage kobs at 10000 uM GlcN6P” value came to 2.76e-05 ± 2.3e-05 s⁻¹. With C10A C34U G59U U69A, the “self-cleavage kobs at 10000 uM GlcN6P” value came to 3.03e-05 ± 2.1e-05 s⁻¹.

For the variant G38C C50U U69G C70G, the “self-cleavage kobs at 10000 uM GlcN6P” value was found to be 3.45e-05 ± 2.4e-05 s⁻¹.

For the variant U54A C68A, the “self-cleavage kobs at 10000 uM GlcN6P” value was determined as 1.69e-05 ± 1.2e-05 s⁻¹.

As for G40A C67G, the “self-cleavage kobs at 10000 uM GlcN6P” value was determined as 2.64e-05 ± 1.5e-05 s⁻¹. Turning to C50G U54A, the “self-cleavage kobs at 10000 uM GlcN6P” value worked out at 2e-05 ± 1.1e-05 s⁻¹. As to A39U A42C C67G, the “self-cleavage kobs at 10000 uM GlcN6P” value came to 3.52e-05 ± 2.2e-05 s⁻¹.

On to G38U C70U C71G, for which the “self-cleavage kobs at 10000 uM GlcN6P” value turned out to be 2.85e-05 ± 1.6e-05 s⁻¹. As to G35C C50G G59A, the “self-cleavage kobs at 10000 uM GlcN6P” value was 2.74e-05 ± 1.9e-05 s⁻¹. Same read-out and setting: under U30A U31C C50G U56G C61G stands 2.61e-05 ± 1.7e-05 s⁻¹; under A12G U46G C58G G63U U69A, 2.36e-05 ± 2.1e-05 s⁻¹; under G37C U45G, 1.78e-05 ± 1.3e-05 s⁻¹. Same read-out and setting: next, G29A C68G: 1.54e-05 ± 1.2e-05 s⁻¹. Still for that read-out and setting: under G32U G41C stands 1.56e-05 ± 1.5e-05 s⁻¹. As for U30A U57G, the “self-cleavage kobs at 10000 uM GlcN6P” value is 1.86e-05 ± 1.7e-05 s⁻¹.

In a further data set the parent is B1. Kind of data set: self-cleavage kobs at 2500 uM GlcN6P; higher = faster cleavage; RNA array. The conditions noted are these: with glucosamine-6-phosphate. In outline: as §1
With U57C C70G, the “self-cleavage kobs at 2500 uM GlcN6P” value stood at 2.31e-05 ± 1.4e-05 s⁻¹.

In the case of U54A C61U, the “self-cleavage kobs at 2500 uM GlcN6P” value is 1.95e-05 ± 1e-05 s⁻¹. Turning to C58A A64G C68A, the “self-cleavage kobs at 2500 uM GlcN6P” value is 3.01e-05 ± 1.9e-05 s⁻¹. Turning to C50U G62U C68G, the “self-cleavage kobs at 2500 uM GlcN6P” value is 0.00042 ± 0.00027 s⁻¹. In the case of U54A G59A C71A, the “self-cleavage kobs at 2500 uM GlcN6P” value was 2.47e-05 ± 2.3e-05 s⁻¹. Take C50U U54A C70A: the “self-cleavage kobs at 2500 uM GlcN6P” value came to 6.81e-05 ± 3.4e-05 s⁻¹. Consider U65C C70G, for which the “self-cleavage kobs at 2500 uM GlcN6P” value came out at 1.95e-05 ± 1.6e-05 s⁻¹. As for G51A G63U C70G, the “self-cleavage kobs at 2500 uM GlcN6P” value was determined as 5.84e-05 ± 3.5e-05 s⁻¹. Consider C50U C68A C71U, for which the “self-cleavage kobs at 2500 uM GlcN6P” value is 3.14e-05 ± 2.1e-05 s⁻¹. Regarding G59U U65G C67U, the “self-cleavage kobs at 2500 uM GlcN6P” value worked out at 0.00291 ± 0.0025 s⁻¹. Turning to A53U C58U C68G C70A C71A, the “self-cleavage kobs at 2500 uM GlcN6P” value was 5.66e-05 ± 3.7e-05 s⁻¹. Regarding C58U A64U U69G, the “self-cleavage kobs at 2500 uM GlcN6P” value amounted to 4.08e-05 ± 2.7e-05 s⁻¹.
